Consider nine molecules from paper PMC6643034.

No constants are given. Whether binding was seen depends on the method and setting.

T1: P1126_AMBCA (Amblyomma cajennense)
T1 sequence: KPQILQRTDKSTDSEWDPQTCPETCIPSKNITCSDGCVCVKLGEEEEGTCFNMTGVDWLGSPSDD

T2: P1142_AMBCA (Amblyomma cajennense)
T2 sequence: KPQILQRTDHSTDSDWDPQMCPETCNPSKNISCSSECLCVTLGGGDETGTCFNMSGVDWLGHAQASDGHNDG

B1: CCL18 (ligand, UniProt P55774 21-89)
chain: AQVGTNKELCCLVYTSWQIPQKFIVDYSETSPQCPKPGVILLTKRGRQICADPNKKWVQKYISDLKLNA
B2: CCL24 (ligand, UniProt O00175 27-119)
chain: VVIPSPCCMFFVSKRIPENRVVSYQLSSRSTCLKAGVIFTTKKGQQFCGDPKQEWVQRYMKNLDAKQKKASPRARAVAVKGPVQRYPGNQTTC
B3: CCL16 (ligand, UniProt O15467 24-120)
chain: QPKVPEWVNTPSTCCLKYYEKVLPRRLVVGYRKALNCHLPAIIFVTKRNREVCTNPNDDWVQEYIKDPNLPLLPTRNLSTVKIITAKNGQPQLLNSQ
B4: CCL4L1 (ligand, UniProt Q8NHW4 24-92)
chain: APMGSDPPTACCFSYTARKLPRNFVVDYYETSSLCSQPAVVFQTKRGKQVCADPSESWVQEYVYDLELN
B5: CCL22 (ligand, UniProt O00626 25-93)
chain: GPYGANMEDSVCCRDYVRYRLPLRVVKHFYWTSDSCPRPGVVLLTFRDKEICADPRVPWVKMILNKLSQ
B6: CXCL14 (ligand, UniProt O95715 35-111)
chain: SKCKCSRKGPKIRYSDVKKLEMKPKYPHCEEKMVIITTKSVSRYRGQEHCLHPKLQSTKRFIKWYNAWNEKRRVYEE
B7: CCL27 (ligand, UniProt Q9Y4X3 25-112)
chain: FLLPPSTACCTQLYRKPLSDKLLRKVIQVELQEADGDCHLQAFVLHLAQRSICIHPQNPSLSQWFEHQERKLHGTLPKLNFGMLRKMG
B8: CCL3L1 (ligand, UniProt P16619 24-93)
chain: APLAADTPTACCFSYTSRQIPQNFIADYFETSSQCSKPSVIFLTKRGRQVCADPSEEWVQKYVSDLELSA
B9: CCL1 (ligand, UniProt P22362 24-96)
chain: KSMQVPFSRCCFSFAEQEIPLRAILCYRNTSSICSNEGLIFKLKRGKEACALDTVGWVQRHRKMLRHCPSKRK

The first experiment concerns the target P1101_IXORI (Ixodes ricinus). Description: BLI; cross-binding screen on OctetRed; evasin held on a nickel-coated biosensor through its C-terminal His tag; each human chemokine at 300 nM; both purified. Background: Biolayer interferometry detects binding as a change in optical thickness at a sensor tip.
On to B1, for which the binding entry was “no binding (tested: 300 nM)”.
Still for that read-out and setting: the entry for B2 is “no binding (tested: 300 nM)”; for B3 it is “no binding (tested: 300 nM)”; for B4 it is “no binding (tested: 300 nM)”.
Same read-out and setting: the entry for B5 is “no binding (tested: 300 nM)”.
On the same count and under the same terms, the entry for B6 is “no binding (tested: 300 nM)”; for B7 it is “no binding (tested: 300 nM)”.
In the case of B8, the binding entry is recorded as “no binding (tested: 300 nM)”.
On the same count and under the same terms, in the case of B9 it was “no binding (tested: 300 nM)”.

The target in a further experiment is T1, P1126_AMBCA (Amblyomma cajennense). The description is as above.
In the case of B3, the binding entry is given as “no binding (tested: 300 nM)”.

The target of a further experiment is T2, P1142_AMBCA (Amblyomma cajennense). Described as above.
For B3, the binding result was “no binding (tested: 300 nM)”.

For a further experiment, the target named is P1170_IXORI (Ixodes ricinus). The description is as above.
Regarding B1, the binding result is given as “no binding (tested: 300 nM)”.
Still for that read-out and setting: the entry for B2 is “no binding (tested: 300 nM)”; for B3 it is “no binding (tested: 300 nM)”.
Same read-out and setting: in the case of B4 it was “no binding (tested: 300 nM)”.
Still for that read-out and setting: in the case of B5 it was “no binding (tested: 300 nM)”; in that of B6, “no binding (tested: 300 nM)”; in that of B7, “no binding (tested: 300 nM)”.
As to B8, the binding result is “no binding (tested: 300 nM)”.
On the same count and under the same terms, in the case of B9 it was “no binding (tested: 300 nM)”.
